According to publication PMC3630112:
These are yes or no findings as the source states them, for the method shown. Binding seen in cells or lysates may run through a third protein. Some results given as binding are weak or reduced against the parent protein; the word gives no strength.

Target: Flag-tagged Dcp2 (HEK 293T) (mouse) (UniProt Q9CYC6)
Experiment: co-IP; GFP-tagged Dcp1a, HA-tagged CA or DN MAPKK1 and Flag-tagged Dcp2 co-expressed in HEK 293T cells, with or without U0126; IP with M2 beads; western blot with anti-GFP, anti-Flag, anti-Edc4

binding: binds
B1: endogenous Edc4 (HEK 293T cells) (protein, UniProt Q6P2E9 1-1401)
chain: MASCASIDIEDATQHLRDILKLDRPAGGPSAESPRPSSAYNGDLNGLLVPDPLCSGDSTSANKTGLRTMPPINLQEKQVICLSGDDSSTCIGILAKEVEIVASSDSSISSKARGSNKVKIQPVAKYDWEQKYYYGNLIAVSNSFLAYAIRAANNGSAMVRVISVSTSERTLLKGFTGSVADLAFAHLNSPQLACLDEAGNLFVWRLALVNGKIQEEILVHIRQPEGTPLNHFRRIIWCPFIPEESEDCCEESSPTVALLHEDRAEVWDLDMLRSSHSTWPVDVSQIKQGFIVVKGHSTCLSEGALSPDGTVLATASHDGYVKFWQIYIEGQDEPRCLHEWKPHDGRPLSCLLFCDNHKKQDPDVPFWRFLITGADQNRELKMWCTVSWTCLQTIRFSPDIFSSVSVPPSLKVCLDLSAEYLILSDVQRKVLYVMELLQNQEEGHACFSSISEFLLTHPVLSFGIQVVSRCRLRHTEVLPAEEENDSLGADGTHGAGAMESAAGVLIKLFCVHTKALQDVQIRFQPQLNPDVVAPLPTHTAHEDFTFGESRPELGSEGLGSAAHGSQPDLRRIVELPAPADFLSLSSETKPKLMTPDAFMTPSASLQQITASPSSSSSGSSSSSSSSSSSLTAVSAMSSTSAVDPSLTRPPEELTLSPKLQLDGSLTMSSSGSLQASPRGLLPGLLPAPADKLTPKGPGQVPTATSALSLELQEVEPLGLPQASPSRTRSPDVISSASTALSQDIPEIASEALSRGFGSSAPEGLEPDSMASAASALHLLSPRPRPGPELGPQLGLDGGPGDGDRHNTPSLLEAALTQEASTPDSQVWPTAPDITRETCSTLAESPRNGLQEKHKSLAFHRPPYHLLQQRDSQDASAEQSDHDDEVASLASASGGFGTKVPAPRLPAKDWKTKGSPRTSPKLKRKSKKDDGDAAMGSRLTEHQVAEPPEDWPALIWQQQRELAELRHSQEELLQRLCTQLEGLQSTVTGHVERALETRHEQEQRRLERALAEGQQRGGQLQEQLTQQLSQALSSAVAGRLERSIRDEIKKTVPPCVSRSLEPMAGQLSNSVATKLTAVEGSMKENISKLLKSKNLTDAIARAAADTLQGPMQAAYREAFQSVVLPAFEKSCQAMFQQINDSFRLGTQEYLQQLESHMKSRKAREQEAREPVLAQLRGLVSTLQSATEQMAATVAGSVRAEVQHQLHVAVGSLQESILAQVQRIVKGEVSVALKEQQAAVTSSIMQAMRSAAGTPVPSAHLDCQAQQAHILQLLQQGHLNQAFQQALTAADLNLVLYVCETVDPAQVFGQPPCPLSQPVLLSLIQQLASDLGTRTDLKLSYLEEAVMHLDHSDPITRDHMGSVMAQVRQKLFQFLQAEPHNSLGKAARRLSLMLHGLVTPSLP
